Here are results for 1 molecule from article PMC9473612.

These are yes or no findings as the source states them, for the method shown. Binding seen in cells or lysates may run through a third protein. Binding calls can cover weak binding; strength is not graded here.

Assay [1] concerns the target mNeongreen RhoGEF2 (1–619) 7A (Drosophila). As to the kind of experiment: co-IP; S2 cells coexpressing mNeongreen RhoGEF2 (1-619) constructs and EB1-mScarlet; 1 mg lysate in 50 mM tris-HCl pH 7.5, 250 mM NaCl, 1 mM EDTA, 1 mM MgCl2, 0.2% NP-40, 10% glycerol; precipitated with mNeongreen-trap magnetic agarose, 1 h, 4°C; immunoblot. On the technique in general: Immunoblotting shows a protein as a band on a membrane.

The target in assay [2] is mNeongreen RhoGEF2 (1–619), wild type (Drosophila). The assay is described as above.

B1: EB1-mScarlet (protein, UniProt Q9XZ57 1-290)
chain: MAVNVYSTNVTSENLSRHDMLAWVNDCLQSQFSKIEELCTGAAYCQFMDMLFPNSVPVKRVKFRTNLEHEYIQNFKILQAGFKKMSVDKIIPIDKLVKGRFQDNFEFLQWFKKFFDANYDGRDYDASAVREGAPMGFGSGAVKSLPGTAASGVSSSYRRGPSATTRPAMTSAVKPISKVLPRTNNAAPASRINACANSTGTVKKNDVSNSVNNQQIEEMSNQVMDMRINLEGLEKERDFYFSKLRDIEILCQEADDAEAHPIIQKILDILYATEDGFAPPDDAPPEDEEY
Consider B1, for which the binding result in assay [1] and in assay [2] was “binds” throughout.
